We go through 2 molecules from ChEMBL document CHEMBL5674883, “The Heterochromatin Landscape in Migrating Cells and the Importance of H3K27me3 for Associated Transcriptome Alterations” (Cells, 2018).

Sequences of proteins named here, by UniProt entry; tags and fusion partners are left off.
UniProt Q61188, whole entry: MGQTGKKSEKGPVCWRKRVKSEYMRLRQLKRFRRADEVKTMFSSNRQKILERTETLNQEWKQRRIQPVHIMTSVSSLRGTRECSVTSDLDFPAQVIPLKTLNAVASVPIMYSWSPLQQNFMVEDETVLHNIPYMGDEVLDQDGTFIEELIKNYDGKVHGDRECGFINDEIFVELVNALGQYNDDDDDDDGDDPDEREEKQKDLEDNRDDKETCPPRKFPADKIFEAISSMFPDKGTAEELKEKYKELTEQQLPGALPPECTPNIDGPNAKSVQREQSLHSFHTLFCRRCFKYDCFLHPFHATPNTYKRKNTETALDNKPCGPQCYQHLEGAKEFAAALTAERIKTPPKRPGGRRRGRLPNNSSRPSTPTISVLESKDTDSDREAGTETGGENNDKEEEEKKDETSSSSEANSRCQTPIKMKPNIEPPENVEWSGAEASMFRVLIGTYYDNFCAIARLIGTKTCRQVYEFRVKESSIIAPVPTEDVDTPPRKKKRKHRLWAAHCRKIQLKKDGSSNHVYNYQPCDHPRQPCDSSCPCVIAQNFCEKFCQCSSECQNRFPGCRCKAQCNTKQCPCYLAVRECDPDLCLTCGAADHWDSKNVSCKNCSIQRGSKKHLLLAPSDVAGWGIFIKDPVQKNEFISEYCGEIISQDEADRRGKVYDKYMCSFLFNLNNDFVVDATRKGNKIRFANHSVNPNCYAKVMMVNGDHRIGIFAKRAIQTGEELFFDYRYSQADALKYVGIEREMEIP

The structures appear in SMILES notation. The source gives many values for each of these; only a part stands here.

Common to all, as to assay type: cell-based
The target in assay [1] is T1, RNA polymerase II (Mus musculus) (UniProt P08775+Q8CFI7+P97760+A0A3Q4L2S8+Q80UW8+P61219+P62488+Q923G2+P60898+O08740+Q63871+P62876). In words: Inhibition of RNA polymerase II in mouse B16-F1 migrating cells assessed as fold change in Egln1-RNA stability at 0.1 mM measured by ChIP-seq analysis relative to control cells.
Assay [2] addresses T1, RNA polymerase II (Mus musculus). In words: Inhibition of RNA polymerase II in mouse B16-F1 migrating cells assessed as fold change in Ptgds-RNA stability at 0.1 mM measured by ChIP-seq analysis relative to control cells.
For assay [3] the target is unchanged. As to the kind of experiment: Inhibition of RNA polymerase II in mouse B16-F1 migrating cells assessed as fold change in Map1lc3a-RNA stability at 0.1 mM measured by ChIP-seq analysis relative to control cells.
The target is the same in assay [4]. As to the kind of experiment: Inhibition of RNA polymerase II in mouse B16-F1 migrating cells assessed as fold change in Snx3-RNA stability at 0.1 mM measured by ChIP-seq analysis relative to control cells.
Assay [5] has the same target. As to the kind of experiment: Inhibition of RNA polymerase II in mouse B16-F1 migrating cells assessed as fold change in Hnrnpr-RNA stability at 0.1 mM measured by ChIP-seq analysis relative to control cells.
The target is the same in assay [6]. In words: Inhibition of RNA polymerase II in mouse B16-F1 migrating cells assessed as fold change in Inpp4b-RNA stability at 0.1 mM measured by ChIP-seq analysis relative to control cells.
For assay [7] the target is unchanged. In words: Inhibition of RNA polymerase II in mouse B16-F1 migrating cells assessed as fold change in Naa15-RNA stability at 0.1 mM measured by ChIP-seq analysis relative to control cells.
The target is the same in assay [8]. As to the kind of experiment: Inhibition of RNA polymerase II in mouse B16-F1 migrating cells assessed as fold change in Socs6-RNA stability at 0.1 mM measured by ChIP-seq analysis relative to control cells.
Assay [9] has the same target. As to the kind of experiment: Inhibition of RNA polymerase II in mouse B16-F1 migrating cells assessed as fold change in Cep57l1-RNA stability at 0.1 mM measured by ChIP-seq analysis relative to control cells.
The target is the same in assay [10]. As to the kind of experiment: Inhibition of RNA polymerase II in mouse B16-F1 migrating cells assessed as fold change in Wbp4-RNA stability at 0.1 mM measured by ChIP-seq analysis relative to control cells.
The target is the same in assay [11]. In words: Inhibition of RNA polymerase II in mouse B16-F1 migrating cells assessed as fold change in Mier1-RNA stability at 0.1 mM measured by ChIP-seq analysis relative to control cells.
Assay [12] shares this target. As to the kind of experiment: Inhibition of RNA polymerase II in mouse B16-F1 migrating cells assessed as fold change in Mis18bp1-RNA stability at 0.1 mM measured by ChIP-seq analysis relative to control cells.
For assay [13] the target is unchanged. In words: Inhibition of RNA polymerase II in mouse B16-F1 migrating cells assessed as fold change in Esco2-RNA stability at 0.1 mM measured by ChIP-seq analysis relative to control cells.
Assay [14] concerns the target Histone-lysine N-methyltransferase EZH2 (Mus musculus) (UniProt Q61188). As to the kind of experiment: Inhibition of EZH2 in mouse B16-F1 migrating cells assessed as fold change in H3K27me3-dependent regulated Gm37352-mRNA expression at 3 uM measured by ChIP-seq analysis relative to control cells.
Assay [15] has the same target. In words: Inhibition of EZH2 in mouse B16-F1 migrating cells assessed as fold change in H3K27me3-dependent regulated Gm47854-mRNA expression at 3 uM measured by ChIP-seq analysis relative to control cells.
Assay [16] has the same target. As to the kind of experiment: Inhibition of EZH2 in mouse B16-F1 migrating cells assessed as fold change in H3K27me3-dependent regulated Zfp934-mRNA expression at 3 uM measured by ChIP-seq analysis relative to control cells.
For assay [17] the target is unchanged. As to the kind of experiment: Inhibition of EZH2 in mouse B16-F1 migrating cells assessed as fold change in H3K27me3-independent regulated Plekhg1-mRNA expression at 3 uM measured by ChIP-seq analysis relative to control cells.
Assay [18] shares this target. As to the kind of experiment: Inhibition of EZH2 in mouse B16-F1 migrating cells assessed as fold change in H3K27me3-independent regulated Zfp395-mRNA expression at 3 uM measured by ChIP-seq analysis relative to control cells.
Assay [19] shares this target. As to the kind of experiment: Inhibition of EZH2 in mouse B16-F1 migrating cells assessed as fold change in H3K27me3-buffered regulated Zfp963-mRNA expression at 3 uM measured by ChIP-seq analysis relative to control cells.
For assay [20] the target is unchanged. As to the kind of experiment: Inhibition of EZH2 in mouse B16-F1 migrating cells assessed as fold change in H3K27me3-buffered regulated Ldlr-mRNA expression at 3 uM measured by ChIP-seq analysis relative to control cells.
For assay [21] the target is unchanged. As to the kind of experiment: Inhibition of EZH2 in mouse B16-F1 migrating cells assessed as fold change in H3K27me3-buffered regulated Map6-mRNA expression at 3 uM measured by ChIP-seq analysis relative to control cells.
The target is the same in assay [22]. As to the kind of experiment: Inhibition of EZH2 in mouse B16-F1 migrating cells assessed as fold change in H3K27me3-buffered regulated Anxa4-mRNA expression at 3 uM measured by ChIP-seq analysis relative to control cells.
Assay [23] shares this target. In words: Inhibition of EZH2 in mouse B16-F1 migrating cells assessed as fold change in H3K27me3-buffered regulated Jcad-mRNA expression at 3 uM measured by ChIP-seq analysis relative to control cells.
Assay [24] has the same target. As to the kind of experiment: Inhibition of EZH2 in mouse B16-F1 migrating cells assessed as fold change in H3K27me3-buffered regulated Fbln1-mRNA expression at 3 uM measured by ChIP-seq analysis relative to control cells.
Assay [25] shares this target. In words: Inhibition of EZH2 in mouse B16-F1 migrating cells assessed as fold change in H3K27me3-buffered regulated Tpi1-mRNA expression at 3 uM measured by ChIP-seq analysis relative to control cells.
Assay [26] has the same target. As to the kind of experiment: Inhibition of EZH2 in mouse B16-F1 migrating cells assessed as fold change in H3K27me3-buffered regulated Erbb2-mRNA expression at 3 uM measured by ChIP-seq analysis relative to control cells.
For assay [27] the target is unchanged. In words: Inhibition of EZH2 in mouse B16-F1 migrating cells assessed as fold change in H3K27me3-buffered regulated Zc2hc1a-mRNA expression at 3 uM measured by ChIP-seq analysis relative to control cells.
The target is the same in assay [28]. In words: Inhibition of EZH2 in mouse B16-F1 migrating cells assessed as fold change in H3K27me3-buffered regulated Kank4-mRNA expression at 3 uM measured by ChIP-seq analysis relative to control cells.
Assay [29] shares this target. As to the kind of experiment: Inhibition of EZH2 in mouse B16-F1 migrating cells assessed as fold change in H3K27me3-buffered regulated Gcc2-mRNA expression at 3 uM measured by ChIP-seq analysis relative to control cells.
Assay [30] has the same target. In words: Inhibition of EZH2 in mouse B16-F1 migrating cells assessed as fold change in H3K27me3-buffered regulated Ccdc142-mRNA expression at 3 uM measured by ChIP-seq analysis relative to control cells.

With `OC[C@H]1O[C@@H](n2cnc3cc(Cl)c(Cl)cc32)[C@H](O)[C@@H]1O`, the log2FC in assay [1] was 0.86; in assay [2] it was 0.64; in assay [3] it was 0.63; in assay [4] it was 0.43; in [5] it was -0.5; in assay [6], -0.52. In addition, the log2FC in assay [7] is -0.56; in assay [8] it was -0.58; in assay [9] it was -0.66; in assay [10], -0.69; in assay [11], -0.86; in assay [12], -0.91. Further, the log2FC in assay [13] was -1.2.

On to `CCCc1cc(C)[nH]c(=O)c1CNC(=O)c1cc(-c2ccnc(N3CCN(C)CC3)c2)cc2c1cnn2C(C)C`, for which the log2FC in [14] was 0.65; in assay [15] it was 0.41; in assay [16], -0.51; in assay [17], -0.56; in assay [18], -0.85; in assay [19] it was 0.74. The log2FC in assay [20] was found to be 0.7; in assay [21], 0.52; in [22], 0.41; in assay [23] it was 0.39; in [24] it was 0.39; in assay [25] it was 0.39. Also, the log2FC is -0.39 in [26]; -0.41 in assay [27]; -0.47 in assay [28]; -0.48 in assay [29]; -0.94 in assay [30].
